Results reported in PubChem BioAssay AID298 (DTP/NCI, 2004).
The list shows only some results of the screen, not a fair sample: it gathers tests that were run many times, whatever their T/C, doses with no T/C, and many T/C values between a quarter and a half above the control. Further doses and runs are listed elsewhere. T/C gives the treated animals as a percentage of the vehicle group. Schedule codes are those of the source, read here as Q, the interval in days (D) or hours (H), X, the number of doses. Some T/C values are followed by the survivors on the day toxicity was checked, most often the fifth; where none is given, no animal had died by that day. Some doses have a count of surviving animals in place of a T/C: the source holds a T/C of zero for them, seemingly a mark for toxic or unscored doses. Counts of survivors are from the toxicity check (mostly the fifth day) where no day follows; animals may have died later. Some entries hold several experiments; their values stand side by side, smallest first.

Tested on: MX-1 breast xenograft, intrarenal, nude mice, tumor weight
Experiment: NCI In Vivo Anticancer Drug Screen. Data for tumor model Human Mammary Carcinoma MX-1 Xenograft (intrarenal inoculation) in NU/NU BALB/C (nude) mice
Settings: T/C endpoint: mean tumor weight change, higher T/C = larger tumour; for T/C: evaluated on day 11
In short: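 T/C readout: treated-group measurement over vehicle-control measurement, using tumor size or survival in tumor-bearing mice.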

[1] = dose: 800.0 mg/kg/injection, schedule: Q04DX003 (sc), vehicle: saline with Tween-80
[2] = dose: 300.0 mg/kg/injection, schedule: Q04DX003 (ip), vehicle: Klucel (hydroxypropylcellulose) (HPC)

SMILES: OCCN1CCN(CC/C=C2/c3ccccc3Sc3ccc(C(F)(F)F)cc32)CC1
- survivor count (dose: 240.0 mg/kg/injection, schedule: Q04DX003 (sc), vehicle: saline): 0 of 6 on day 11 and 3 of 6 on day 11
- survivor count (dose: 480.0 mg/kg/injection, schedule: Q04DX003 (sc), vehicle: saline): 0 of 6 on day 11

SMILES: O=NNc1ccccn1
- T/C (dose: 8.0 mg/kg/injection, schedule: Q01DX010 (sc), vehicle: saline): 145 % of control [2 of 2 alive on day 11]

SMILES: Cc1c(O)/c(=C\O)c2nc3c(=O)ccc(C(=O)NCCN(C)C)c3[nH]c2c1=O
- survivor count (dose: 400.0 mg/kg/injection, schedule: Q04DX003 (ip), vehicle: other): 2 of 6 on day 11

SMILES: CN(C)CCNc1ccc(CO)c2sc3ccc(O)cc3c(=O)c12
- survivor count (dose: 800.0 mg/kg/injection, schedule: Q04DX003 (ip), vehicle: saline with Tween-80): 0 of 6 on day 11 and 1 of 6 on day 11

SMILES: CSc1ncnc2c1ncn2C1OC(CO)C(O)C1O (centres undefined)
- survivor count (dose: 300.0 mg/kg/injection, schedule: Q04DX003 (sc), vehicle: saline + alcohol): 0 of 6 on day 11
- survivor count (dose: 600.0 mg/kg/injection, schedule: Q04DX003 (sc), vehicle: saline + alcohol): 0 of 6 on day 11

SMILES: CCc1ccc(C2=C(O)C(=O)C(c3ccc(CC)cc3)=C(O)C2=O)cc1
- survivor count (dose: 400.0 mg/kg/injection, schedule: Q04DX003 (sc), vehicle: saline with Tween-80): 0 of 6 on day 11
- survivor count [1]: 0 of 6 on day 11
- survivor count (dose: 1600.0 mg/kg/injection, schedule: Q04DX003 (sc), vehicle: saline with Tween-80): 0 of 6 on day 11

SMILES: CCCCOCN(COCCCC)C12CC3CC(CC(C3)C1)C2
- survivor count [1]: 1 of 6 on day 11

SMILES: CCN(CC)CC(C)(C)C(=O)/C=C/c1ccc(/C=C/C(=O)C(C)(C)CN(CC)CC)cc1
- T/C (dose: 15.0 mg/kg/injection, schedule: Q04DX003 (ip), vehicle: saline): 144 % of control
- T/C (dose: 30.0 mg/kg/injection, schedule: Q04DX003 (ip), vehicle: saline): 125 % of control
- survivor count (dose: 120.0 mg/kg/injection, schedule: Q04DX003 (ip), vehicle: saline): 0 of 6 on day 11

SMILES: COC1C(N)C(OC2C(Oc3cccc4c(O)c5c(=O)oc6ccc(C)c7c(=O)oc(c34)c5c67)OC(C)C(O)C2(C)O)OC(C)C1O (centres undefined)
- survivor count (dose: 10.0 mg/kg/injection, schedule: Q04DX003 (ip), vehicle: lactic acid): 0 of 6 on day 11
- survivor count (dose: 20.0 mg/kg/injection, schedule: Q04DX003 (ip), vehicle: lactic acid): 0 of 6 on day 11
- survivor count (dose: 40.0 mg/kg/injection, schedule: Q04DX003 (ip), vehicle: lactic acid): 0 of 6 on day 11

SMILES: CN(N=O)C(=O)N[C@@H](C=O)[C@@H](O)[C@H](O)[C@H](O)CO
- survivor count (dose: 300.0 mg/kg/injection, schedule: Q04DX003 (ip), vehicle: other): 3 of 6 on day 11
- survivor count (dose: 300.0 mg/kg/injection, schedule: Q04DX003 (sc), vehicle: saline): 1 of 6 on day 11
- survivor count (dose: 600.0 mg/kg/injection, schedule: Q04DX003 (sc), vehicle: saline): 0 of 6 on day 11
- survivor count (dose: 1200.0 mg/kg/injection, schedule: Q04DX003 (sc), vehicle: saline): 0 of 6 on day 11

SMILES: CCc1nc(N)nc(N)c1-c1ccc(Cl)c([N+](=O)[O-])c1
- survivor count (dose: 150.0 mg/kg/injection, schedule: Q04DX003 (sc), vehicle: saline with Tween-80): 0 of 6 on day 11

SMILES: C[C@@](O)(/C=C/[C@H]1CC=CC(=O)O1)[C@@H](C[C@@H](O)\C=C/C=C\C=C\CO)OP(=O)(O)O
- T/C (dose: 3.0 mg/kg/injection, schedule: Q01DX009 (ip), vehicle: other): 128 % of control
- survivor count (dose: 75.0 mg/kg/injection, schedule: Q04DX003 (sc), vehicle: other): 0 of 6 on day 11
- survivor count (dose: 150.0 mg/kg/injection, schedule: Q04DX003 (sc), vehicle: other): 0 of 6 on day 11
- survivor count (dose: 300.0 mg/kg/injection, schedule: Q04DX003 (sc), vehicle: other): 0 of 6 on day 11

SMILES: O=c1c(O)c(O)c1=O.[NH2-].[NH2-].[NH2-].[NH2-].[NH2-].[Ru+5]
- survivor count (dose: 100.0 mg/kg/injection, schedule: Q04DX003 (ip), vehicle: suspension in saline): 0 of 6 on day 11

SMILES: COc1cc2c(c3c1c(=O)c1ccccc1n3C)C=CC(C)(C)O2
- survivor count [2]: 2 of 6 on day 11

SMILES: c1ccc(P(CCNCCP(c2ccccc2)c2ccccc2)c2ccccc2)cc1
- T/C (dose: 400.0 mg/kg/injection, schedule: Q04DX003 (ip), vehicle: saline with Tween-80): 139 % of control

SMILES: CC1(C)CC(=O)C(CSC(=O)c2ccccc2)C(=O)C1
- survivor count (dose: 600.0 mg/kg/injection, schedule: Q04DX003 (sc), vehicle: Klucel (hydroxypropylcellulose) (HPC)): 1 of 6 on day 11

SMILES: Nc1nncs1
- survivor count (dose: 100.0 mg/kg/injection, schedule: Q01DX010 (sc), vehicle: saline): 0 of 3 on day 11
- survivor count (dose: 200.0 mg/kg/injection, schedule: Q01DX010 (sc), vehicle: saline): 0 of 3 on day 11
- survivor count (dose: 400.0 mg/kg/injection, schedule: Q01DX010 (sc), vehicle: saline): 0 of 3 on day 11
- survivor count (dose: 800.0 mg/kg/injection, schedule: Q01DX010 (sc), vehicle: saline): 0 of 3 on day 11

SMILES: C=C1C(O)C2(O)OCC34C(CC5C(C)=CC(=O)C(O)C5(C)C23)OC(=O)C(OC(=O)C/C=C(\C)CCCCC)C14 (centres undefined)
- survivor count (dose: 12.5 mg/kg/injection, schedule: Q04DX003 (ip), vehicle: saline + alcohol): 0 of 6 on day 11
- survivor count (dose: 25.0 mg/kg/injection, schedule: Q04DX003 (ip), vehicle: saline + alcohol): 0 of 6 on day 11
- survivor count (dose: 50.0 mg/kg/injection, schedule: Q04DX003 (ip), vehicle: saline + alcohol): 0 of 6 on day 11
- survivor count (dose: 100.0 mg/kg/injection, schedule: Q04DX003 (ip), vehicle: saline + alcohol): 0 of 6 on day 11

SMILES: Cn1c(=S)sc2nc3ccccc3n2c1=S
- T/C (dose: 60.0 mg/kg/injection, schedule: Q04DX003 (ip), vehicle: saline with Tween-80): 129 % of control
- survivor count (dose: 240.0 mg/kg/injection, schedule: Q04DX003 (ip), vehicle: saline with Tween-80): 3 of 5 on day 11
- survivor count (dose: 480.0 mg/kg/injection, schedule: Q04DX003 (ip), vehicle: saline with Tween-80): 1 of 6 on day 11

SMILES: NC(=O)C1=CC2C3C=CC2(O)C(=O)OC3O1 (centres undefined)
- survivor count (dose: 150.0 mg/kg/injection, schedule: Q04DX003 (ip), vehicle: Klucel (hydroxypropylcellulose) (HPC)): 2 of 6 on day 11
- survivor count [2]: 0 of 6 on day 11

SMILES: Oc1cc(O)cc(/C=C/c2ccc(O)c(O)c2)c1
- survivor count (dose: 200.0 mg/kg/injection, schedule: Q04DX003 (ip), vehicle: DMSO): 3 of 6 on day 11
- survivor count (dose: 300.0 mg/kg/injection, schedule: Q04DX003 (ip), vehicle: DMSO): 2 of 6 on day 11
- survivor count (dose: 400.0 mg/kg/injection, schedule: Q04DX003 (ip), vehicle: DMSO): 0 of 6 on day 11

SMILES: COC(=O)C12OCC34C(CC5C(C)C6=CC(=O)OC6=CC5(C)C3C(O)C1O)OC(=O)C(O)C24 (centres undefined)
- survivor count (dose: 4.0 mg/kg/injection, schedule: Q04DX003 (ip), vehicle: Klucel (hydroxypropylcellulose) (HPC)): 0 of 5 on day 11
- survivor count (dose: 5.7 mg/kg/injection, schedule: Q04DX003 (ip), vehicle: Klucel (hydroxypropylcellulose) (HPC)): 0 of 3 on day 11
- survivor count (dose: 8.0 mg/kg/injection, schedule: Q04DX003 (ip), vehicle: Klucel (hydroxypropylcellulose) (HPC)): 0 of 6 on day 11
- survivor count (dose: 9.4 mg/kg/injection, schedule: Q04DX003 (ip), vehicle: Klucel (hydroxypropylcellulose) (HPC)): 0 of 3 on day 11
- survivor count (dose: 16.0 mg/kg/injection, schedule: Q04DX003 (ip), vehicle: Klucel (hydroxypropylcellulose) (HPC)): 0 of 6 on day 11
- survivor count (dose: 18.8 mg/kg/injection, schedule: Q04DX003 (ip), vehicle: Klucel (hydroxypropylcellulose) (HPC)): 0 of 3 on day 11
- survivor count (dose: 32.0 mg/kg/injection, schedule: Q04DX003 (ip), vehicle: Klucel (hydroxypropylcellulose) (HPC)): 0 of 6 on day 11
- survivor count (dose: 37.5 mg/kg/injection, schedule: Q04DX003 (ip), vehicle: Klucel (hydroxypropylcellulose) (HPC)): 0 of 3 on day 11
